Seven molecules from paper PMC10332324 can be followed below.

To fix the notation:
B1: maternal expression at 31B (Me31b) (protein, UniProt P23128 1-459)
chain: MMTEKLNSGHTNLTSKGIINDLQIAGNTSDDMGWKSKLKLPPKDNRFKTTDVTDTRGNEFEEFCLKRELLMGIFEKGWERPSPIQEAAIPIALSGKDVLARAKNGTGKTGAYCIPVLEQIDPTKDYIQALVMVPTRELALQTSQICIELAKHLDIRVMVTTGGTILKDDILRIYQKVQLIIATPGRILDLMDKKVADMSHCRILVLDEADKLLSLDFQGMLDHVILKLPKDPQILLFSATFPLTVKNFMEKHLREPYEINLMEELTLKGVTQYYAFVQERQKVHCLNTLFSKLQINQSIIFCNSTQRVELLAKKITELGYCCYYIHAKMAQAHRNRVFHDFRQGLCRNLVCSDLFTRGIDVQAVNVVINFDFPRMAETYLHRIGRSGRFGHLGIAINLITYEDRFDLHRIEKELGTEIKPIPKVIDPALYVANVGASVGDTCNNSDLNNSANEEGNVSK
B2: Argonaute 2 (AGO2) (protein, UniProt Q9VUQ5 1-1214)
chain: MGKKDKNKKGGQDSAAAPQPQQQQKQQQQRQQQPQQLQQPQQLQQPQQLQQPQQQQQQQPHQQQQQSSRQQPSTSSGGSRASGFQQGGQQQKSQDAEGWTAQKKQGKQQVQGWTKQGQQGGHQQGRQGQDGGYQQRPPGQQQGGHQQGRQGQEGGYQQRPPGQQQGGHQQGRQGQEGGYQQRPSGQQQGGHQQGRQGQEGGYQQRPPGQQQGGHQQGRQGQEGGYQQRPSGQQQGGHQQGRQGQEGGYQQRPPGQQQGGHQQGRQGQEGGYQQRPPGQQQGGHEQGRQGQEGGYQQRPSGQQQGGHQQGRQGQEGGYQQRPSGQQQGGHQQGRQGQEGGYQQRPSGQQQGGHQQGRQGQEGGYQQRPPGQQPNQTQSQGQYQSRGPPQQQQAAPLPLPPQPAGSIKRGTIGKPGQVGINYLDLDLSKMPSVAYHYDVKIMPERPKKFYRQAFEQFRVDQLGGAVLAYDGKASCYSVDKLPLNSQNPEVTVTDRNGRTLRYTIEIKETGDSTIDLKSLTTYMNDRIFDKPMRAMQCVEVVLASPCHNKAIRVGRSFFKMSDPNNRHELDDGYEALVGLYQAFMLGDRPFLNVDISHKSFPISMPMIEYLERFSLKAKINNTTNLDYSRRFLEPFLRGINVVYTPPQSFQSAPRVYRVNGLSRAPASSETFEHDGKKVTIASYFHSRNYPLKFPQLHCLNVGSSIKSILLPIELCSIEEGQALNRKDGATQVANMIKYAATSTNVRKRKIMNLLQYFQHNLDPTISRFGIRIANDFIVVSTRVLSPPQVEYHSKRFTMVKNGSWRMDGMKFLEPKPKAHKCAVLYCDPRSGRKMNYTQLNDFGNLIISQGKAVNISLDSDVTYRPFTDDERSLDTIFADLKRSQHDLAIVIIPQFRISYDTIKQKAELQHGILTQCIKQFTVERKCNNQTIGNILLKINSKLNGINHKIKDDPRLPMMKNTMYIGADVTHPSPDQREIPSVVGVAASHDPYGASYNMQYRLQRGALEEIEDMFSITLEHLRVYKEYRNAYPDHIIYYRDGVSDGQFPKIKNEELRCIKQACDKVGCKPKICCVIVVKRHHTRFFPSGDVTTSNKFNNVDPGTVVDRTIVHPNEMQFFMVSHQAIQGTAKPTRYNVIENTGNLDIDLLQQLTYNLCHMFPRCNRSVSYPAPAYLAHLVAARGRVYLTGTNRFLDLKKEYAKRTIVPEFMKKNPMYFV
B3: Acinus (Acn) (protein, UniProt Q9VJ12 1-739)
chain: MRRRSERKKSSSPAPVPVAVARRSRRSRKVSENEKTEVETPVVAQNNEAECPKVPPASQEINEARASSEERAGSGASPVRRSRGSRTTPRKRTESKGGDKKVDTIPEEEPENGKDVEKDAVEEEKTVAPPAANESESEDRAKTEDQQAQDDESCAEPAVVKDDDVEKEDLKPQQEVPTSTDDDTKQSEPEQEVKVPSPSSKDEEHLKTTSDVLDIQTEEVDERDEEASAPAERRETKKRHKEQIKEQQPAEEEEHKENHKQIDENPEQIHDEPADLSNDKHDPCLNSSATNTTGAPVLQQQRSVRKRKWLTNKKSSDRTPPVLAISTDSLKNIIADVVQPVPLSDVQLESSSEEEGLVTSDRDSERSASPAPPSEASKDRDNKGNTANTCDTTAEASADNEGAGAAPPAAADTVSAQVSLSKATVSTAAPHIVRDPSPARNRASHVLYITNLVRPFTVLQLKGLLARTGKIVEEDGFWIDRIKSKCYVAYSTEDEAIETRHALHGVRWPVSNPKCLNVDFGSRTDMDRAILSTKDEAPRYGQENTRDNQQSGNAWSRLEPSDKKPARPVREWDVGKKEPSDHDKHSNDRRRDSKDRLDSRSRDAERAGQERKRSRDREGRGRDRERERLDRNAHARSRSGSPASKTKKENEPPIRLLDDLFRKTKGTPCIYWLPLTPEAIAEKEAFRQKRIEEHKLRIKEREERQKEREKDRDRQRETRRNRSNERRRSRSRERERRRY
B4: Numb (protein, UniProt P16554 1-556)
chain: MGNSSSHTHEPLERGFTRGKFGDVKNGKSASFRFSKKSPKKMDRLRRSFRDSFRRRKDRVPESSKPHQWQADEEAVRSATCSFSVKYLGCVEVFESRGMQVCEEALKVLRQSRRRPVRGLLHVSGDGLRVVDDETKGLIVDQTIEKVSFCAPDRNHERGFSYICRDGTTRRWMCHGFLACKDSGERLSHAVGCAFAVCLERKQRRDKECGVTMTFDTKNSTFTRTGSFRQQTLTERLAMATVGTNERSVDGPGSAMPGPPAATVKPFNPFAIERPHATPNMLERQSSFRLSTIGSQSPFKRQMSLRINDLPSNADRQRAFLTAAAGNPMQTPLRSVSPIAEVSPAKSAGADPLSAAAVAADSVSQLCQELSQGLSLLTQTDALLAAGEDLNFNNNRSINQNIIAAEKQVQHVHSYAPPTAQVTPRVASTTPTYQTLHSQSPSRSEQSIETSTELPNAEQWLGHVVRSTSPAAPKRPTYLANVGRAQTLASGTGAAVGGGGPDDPFDAEWVANVAAAKQLSPDLPIPSTARSPLARHSTNPFISPPKAPAQSFQVQL
B5: Upf1 RNA helicase (Upf1) (protein, UniProt Q9VYS3 1-1180)
chain: MSVDTYAPSSALSFLDMDDNELLPGADTQPTQYDYRDFTMPSTSQSQTQNDQLEIAQRCSAGDSHPRLASITNDLADLQFEEEDDEPGSSYVKELPPHACKYCGIHDPATVVMCNNCRKWFCNGRGSTSGSHIINHLVRAKHREVTLHGEGPLGETILECYSCGVRNVFVLGFIPAKADSVVVLLCRQPCAAQNSLKDMNWDQEQWKPLIADRCFLAWLVKQPSEQGQLRARQISAAQINKLEELWKENIEATFQDLEKPGIDSEPAHVLLRYEDGYQYEKTFGPLVRLEAEYDQKLKESATQENIEVRWDVGLNKKTIAYFTLAKTDSDMKLMHGDELRLHYVGELYNPWSEIGHVIKVPDNFGDDVGLELKSSTNAPVKCTSNFTVDFIWKCTSFDRMTRALCKFAIDRNSVSNFIYSRLLGHGRADSNDEVLFRGPQPKLFSAPHLPDLNRSQVYAVKHALQRPLSLIQGPPGTGKTVTSATIVYQLVKLHGGTVLVCAPSNTAVDQLTEKIHRTNLKVVRVCAKSREAIDSPVSFLALHNQIRNMETNSELKKLQQLKDETGELSSADEKRYRNLKRAAENQLLEAADVICCTCVGAGDGRLSRVKFTSILIDESMQSTEPECMVPVVLGAKQLILVGDHCQLGPVVMCKKAARAGLSQSLFERLVVLGIRPFRLEVQYRMHPELSQFPSNFFYEGSLQNGVCAEDRRLKLDFPWPQPERPMFFLVTQGQEEIAGSGTSFLNRTEAANVEKITTRFLKAGIKPEQIGIITPYEGQRAYLVQYMQYQGSLHSRLYQEIEIASVDAFQGREKDIIIMSCVRSNERQGIGFLNDPRRLNVALTRAKFGIIIVGNPKVLAKQQLWNHLLNFYKDRKVLVEGSLNNLKESLIHFQKPKKLVNSMNIGAHFMSTIIADAKEVMVPGSIYDRSGGYGQGRQMVGQSMNGGQYGGSGGGPYGNSPLGYGTPSSNSMVGFGLGNGGNGAAGGNNNFGGAGPSWAAAHLHHDSIGYISNEHGAAALGNMPVPVGMFMNMSNIPPRFYNQHQQAIMAVKQNRAIQQQTGNFSPGNSGPGVTGVGVGRSATPGGNKKTNKLGKSRVTGGGTGGAPLTQGSSVCNAAPYSQHPMPLSLQMTQPSGFALSQQPELSQDFGQISQMDGLLSQDVAFNASGERSLNQFSQPY
B6: Collapsin Response Mediator Protein (CRMP) (protein, UniProt Q8IPQ2 1-594)
chain: MSTSPKPVKKVPIHLQSAQNRVYIKNGEIVNHDKSFKADVYIEDGIIKFVGPSSEITIPGGVRTIDASGLMIIPGGIDPHTHMQLPFGGAVAVDDFYHGTKAAVAGGTTMIIDFVLPNKHESMIEAYDKWRSWADPKVCCDYGLHVGITWWSKSVSEEIGILCKELGVNSFKTFMAYKGLYQLNDSDLLDVFERIRHLNGVAMVHAENGDIIAKNTQRLLAEGINGPEGHELSRPEEVEAEAVHRACVLAHQADCPLYVVHVMSKSAGIELARARHRYRGRYIMGETLAAALGTDATCCQHLGFDAEAAHVLSPPLRPDKTTPEFLMKLLANDDLQLTGSDNCTFNKEHKALGKGDFTKIPNGVNGVEDRMSLVWEKGVHAGLLDPCRFVAVTSTNAAKIFNIYPQKGRIAVGSDADIVIWNPNATRTISKDTHHHACDFNIFEGMTVHGVCEFVLVRGRICAERGNVRVAEGFGRFIPTPVRPPFVYDIIEGKVQSQPEEQHEEKQNGSMAKRFAELDIQIPVQEPISAMLAGNLAMPAEGSLCSTPSVRGRVDGKRDLQESSFSISEELDRSGVRACIKVKNPPGGKSSGFW
B7: Staufen (Stau) (protein, UniProt P25159 1-1026)
chain: MQHNVHAARPAPHIRAAHHHSHSHAHMHLHPGMEQHLGPSLQQQQQPPPPPQQPPHRDLHARLNHHHLHAQQQQQQQTSSNQAGAVAAAGAAYHHGNINSNSGSNISSNSNQMQKIRQQHQHLSSSNGLLGNQPPGPPPQAFNPLAGNPAALAYNQLPPHPPHHMAAHLGSYAAPPPHYYMSQAKPAKYNHYGSNANSNSGSNNSNSNYAPKAILQNTYRNQKVVVPPVVQEVTPVPEPPVTTNNATTNSTSNSTVIASEPVTQEDTSQKPETRQEPASADDHVSTGNIDATGALSNEDTSSSGRGGKDKTPMCLVNELARYNKITHQYRLTEERGPAHCKTFTVTLMLGDEEYSADGFKIKKAQHLAASKAIEETMYKHPPPKIRRSEEGGPMRTHITPTVELNALAMKLGQRTFYLLDPTQIPPTDSIVPPEFAGGHLLTAPGPGMPQPPPPPAYALRQRLGNGFVPIPSQPMHPHFFHGPGQRPFPPKFPSRFALPPPLGAHVHHGPNGPFPSVPTPPSKITLFVGKQKFVGIGRTLQQAKHDAAARALQVLKTQAISASEEALEDSMDEGDKKSPISQVHEIGIKRNMTVHFKVLREEGPAHMKNFITACIVGSIVTEGEGNGKKVSKKRAAEKMLVELQKLPPLTPTKQTPLKRIKVKTPGKSGAAAREGSVVSGTDGPTQTGKPERRKRLNPPKDKLIDMDDADNPITKLIQLQQTRKEKEPIFELIAKNGNETARRREFVMEVSASGSTARGTGNSKKLAKRNAAQALFELLEAVQVTPTNETQSSEECSTSATMSAVTAPAVEATAEGKVPMVATPVGPMPGILILRQNKKPAKKRDQIVIVKSNVESKEEEANKEVAVAAEENSNNSANSGDSSNSSSGDSQATEAASESALNTSTGSNTSGVSSNSSNVGANTDGNNHAESKNNTESSSNSTSNTQSAGVHMKEQLLYLSKLLDFEVNFSDYPKGNHNEFLTIVTLSTHPPQICHGVGKSSEESQNDAASNALKILSKLGLNNAMK

No constants are given. Whether binding was seen depends on the method and setting. Binding seen in cells or lysates may run through a third protein. These calls come from enrichment with a bait or labelling near it, and not all partners need be listed. No binding means not detected with the bait.

The experiment deals with FLAG-tagged Caper (Drosophila melanogaster). The experiment is described as follows: affinity purification with mass spectrometry; IP from adult Drosophila head lysate (neural-enriched) of flies overexpressing FLAG-Caper, with anti-FLAG M2 magnetic beads (4 h, 4 °C; control yw heads) and with a polyclonal anti-Caper antibody (control rabbit serum); LC-MS of the IPs; hits at adjusted p < 0.05 and log-fold change > 0.
For the molecule B1, the binding entry is given as “binds”.

For B2, the binding entry is on record as “binds”.

Take B3: the binding result is “binds”.

As for B4, the binding entry was “binds”.

On to B5, for which the binding entry was “binds”.

As for B6, the binding result was “no binding”.

As to B7, the binding result is recorded as “no binding”.
